The supplement of paper PMC12823440, “Inhibitors supercharge kinase turnover through native proteolytic circuits” (Nature, 2025)
Counter-ions that a name gives are not always drawn. This is one part of the list. The calls rarely recur for the same compound in another form.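 Kinases were expressed as nanoluciferase fusions in K562 cells and luminescence was read every 4 h between 2 and 18 h as percent of control, DMSO set to 100% and a positive control to 0%. A time point counts as decreased when the signal drops significantly (2 sigma). The hit call is the authors' own, does not follow from the count of time points alone, and its rule is not shown.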

Amino acid sequences for entries named in this document (tags omitted). A change or cut given only in a name is not applied to a line headed by its entry.
UniProt Q9UM73: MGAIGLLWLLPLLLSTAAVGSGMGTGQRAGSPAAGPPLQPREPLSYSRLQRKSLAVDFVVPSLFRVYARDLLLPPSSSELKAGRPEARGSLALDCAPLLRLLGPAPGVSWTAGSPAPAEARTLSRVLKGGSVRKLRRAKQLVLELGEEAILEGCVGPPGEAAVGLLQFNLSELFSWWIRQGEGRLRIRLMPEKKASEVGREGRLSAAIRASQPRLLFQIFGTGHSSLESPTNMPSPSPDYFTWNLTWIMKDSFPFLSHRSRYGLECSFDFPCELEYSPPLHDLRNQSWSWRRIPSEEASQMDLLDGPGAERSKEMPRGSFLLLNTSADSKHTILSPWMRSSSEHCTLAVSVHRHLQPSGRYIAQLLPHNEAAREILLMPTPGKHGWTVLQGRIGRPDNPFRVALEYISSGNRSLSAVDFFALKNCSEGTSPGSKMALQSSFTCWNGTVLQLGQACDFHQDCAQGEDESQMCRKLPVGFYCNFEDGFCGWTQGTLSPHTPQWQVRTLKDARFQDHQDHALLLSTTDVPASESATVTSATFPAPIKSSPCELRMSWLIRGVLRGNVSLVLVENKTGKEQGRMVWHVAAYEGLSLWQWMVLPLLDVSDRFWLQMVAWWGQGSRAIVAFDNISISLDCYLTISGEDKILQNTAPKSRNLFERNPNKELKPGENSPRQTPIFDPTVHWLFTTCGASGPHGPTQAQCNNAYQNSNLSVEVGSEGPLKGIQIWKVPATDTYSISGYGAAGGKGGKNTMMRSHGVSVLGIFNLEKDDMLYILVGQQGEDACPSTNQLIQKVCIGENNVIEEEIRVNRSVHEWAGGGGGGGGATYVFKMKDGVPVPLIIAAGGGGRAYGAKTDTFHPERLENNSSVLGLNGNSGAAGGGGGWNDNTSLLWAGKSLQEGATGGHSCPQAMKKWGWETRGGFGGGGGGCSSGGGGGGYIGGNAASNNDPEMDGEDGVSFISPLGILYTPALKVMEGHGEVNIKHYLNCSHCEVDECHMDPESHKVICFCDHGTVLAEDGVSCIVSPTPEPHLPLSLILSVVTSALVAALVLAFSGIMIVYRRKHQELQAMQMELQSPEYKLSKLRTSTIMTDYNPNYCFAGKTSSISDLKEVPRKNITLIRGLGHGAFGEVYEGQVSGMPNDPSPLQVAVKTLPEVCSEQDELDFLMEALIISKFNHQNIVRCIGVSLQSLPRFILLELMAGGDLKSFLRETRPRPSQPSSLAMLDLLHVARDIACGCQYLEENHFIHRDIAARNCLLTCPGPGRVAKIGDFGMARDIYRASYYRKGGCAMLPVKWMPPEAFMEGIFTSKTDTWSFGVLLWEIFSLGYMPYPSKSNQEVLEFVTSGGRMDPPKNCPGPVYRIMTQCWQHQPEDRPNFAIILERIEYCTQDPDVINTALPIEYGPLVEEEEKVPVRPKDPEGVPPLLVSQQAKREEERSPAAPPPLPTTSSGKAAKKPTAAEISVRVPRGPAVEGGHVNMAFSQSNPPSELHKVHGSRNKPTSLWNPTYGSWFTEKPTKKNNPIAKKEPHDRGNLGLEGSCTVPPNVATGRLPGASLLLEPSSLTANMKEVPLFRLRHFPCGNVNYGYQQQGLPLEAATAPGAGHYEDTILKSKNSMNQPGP
UniProt P10398: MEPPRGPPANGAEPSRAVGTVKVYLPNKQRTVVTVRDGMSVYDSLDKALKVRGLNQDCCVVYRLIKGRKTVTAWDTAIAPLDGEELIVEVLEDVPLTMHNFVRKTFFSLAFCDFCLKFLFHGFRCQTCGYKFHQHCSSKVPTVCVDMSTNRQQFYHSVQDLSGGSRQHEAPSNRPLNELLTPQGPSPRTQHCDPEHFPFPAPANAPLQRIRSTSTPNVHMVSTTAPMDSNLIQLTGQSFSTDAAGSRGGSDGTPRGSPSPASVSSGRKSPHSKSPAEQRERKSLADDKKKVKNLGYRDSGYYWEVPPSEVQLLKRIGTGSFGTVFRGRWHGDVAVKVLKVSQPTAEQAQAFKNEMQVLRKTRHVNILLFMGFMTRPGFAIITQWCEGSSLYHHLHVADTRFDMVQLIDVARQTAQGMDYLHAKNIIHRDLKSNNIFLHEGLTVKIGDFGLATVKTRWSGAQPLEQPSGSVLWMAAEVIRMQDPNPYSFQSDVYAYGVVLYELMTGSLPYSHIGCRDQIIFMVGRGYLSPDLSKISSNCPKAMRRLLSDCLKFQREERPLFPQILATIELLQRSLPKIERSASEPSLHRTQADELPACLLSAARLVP
UniProt O14965: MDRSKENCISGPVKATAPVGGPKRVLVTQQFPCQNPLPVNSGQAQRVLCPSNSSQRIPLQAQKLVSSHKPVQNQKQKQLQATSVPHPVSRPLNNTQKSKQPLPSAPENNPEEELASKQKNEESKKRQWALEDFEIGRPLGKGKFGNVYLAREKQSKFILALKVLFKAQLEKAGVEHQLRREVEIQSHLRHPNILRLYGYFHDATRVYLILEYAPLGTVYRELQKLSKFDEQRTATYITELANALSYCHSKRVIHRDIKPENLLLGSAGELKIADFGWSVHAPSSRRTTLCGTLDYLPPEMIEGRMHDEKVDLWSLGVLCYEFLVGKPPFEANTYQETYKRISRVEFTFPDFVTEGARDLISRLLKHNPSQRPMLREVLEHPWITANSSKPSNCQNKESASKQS
UniProt Q96GD4, whole entry: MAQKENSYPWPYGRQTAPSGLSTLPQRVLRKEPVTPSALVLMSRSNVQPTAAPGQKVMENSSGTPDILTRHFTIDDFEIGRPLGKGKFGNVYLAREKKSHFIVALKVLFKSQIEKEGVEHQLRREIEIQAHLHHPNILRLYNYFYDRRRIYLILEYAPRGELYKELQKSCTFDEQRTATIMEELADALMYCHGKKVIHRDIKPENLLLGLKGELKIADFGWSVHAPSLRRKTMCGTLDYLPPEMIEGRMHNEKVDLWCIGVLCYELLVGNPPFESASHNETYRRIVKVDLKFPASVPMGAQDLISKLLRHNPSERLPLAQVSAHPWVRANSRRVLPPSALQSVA
UniProt Q9UQB9: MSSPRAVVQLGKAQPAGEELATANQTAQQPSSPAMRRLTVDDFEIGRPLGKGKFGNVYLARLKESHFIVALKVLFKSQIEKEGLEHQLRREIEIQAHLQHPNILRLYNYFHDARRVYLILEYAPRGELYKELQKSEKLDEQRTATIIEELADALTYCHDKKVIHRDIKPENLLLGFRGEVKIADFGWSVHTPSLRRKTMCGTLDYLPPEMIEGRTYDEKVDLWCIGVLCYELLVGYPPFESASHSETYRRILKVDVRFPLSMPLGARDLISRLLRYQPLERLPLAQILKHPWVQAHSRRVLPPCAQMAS
UniProt P51451: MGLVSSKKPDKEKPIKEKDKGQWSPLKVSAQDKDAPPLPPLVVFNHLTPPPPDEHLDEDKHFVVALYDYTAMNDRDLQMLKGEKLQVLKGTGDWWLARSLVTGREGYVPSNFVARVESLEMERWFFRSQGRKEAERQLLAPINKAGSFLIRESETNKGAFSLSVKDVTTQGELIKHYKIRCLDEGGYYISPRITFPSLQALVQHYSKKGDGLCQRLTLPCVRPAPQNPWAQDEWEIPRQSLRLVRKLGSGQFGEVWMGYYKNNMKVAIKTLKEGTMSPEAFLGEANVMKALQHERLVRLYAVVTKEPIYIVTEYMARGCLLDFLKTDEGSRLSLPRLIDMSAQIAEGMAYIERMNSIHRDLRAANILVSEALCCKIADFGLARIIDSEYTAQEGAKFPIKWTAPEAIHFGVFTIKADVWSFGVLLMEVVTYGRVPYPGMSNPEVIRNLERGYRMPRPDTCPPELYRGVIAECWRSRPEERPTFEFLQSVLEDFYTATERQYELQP
UniProt P51813: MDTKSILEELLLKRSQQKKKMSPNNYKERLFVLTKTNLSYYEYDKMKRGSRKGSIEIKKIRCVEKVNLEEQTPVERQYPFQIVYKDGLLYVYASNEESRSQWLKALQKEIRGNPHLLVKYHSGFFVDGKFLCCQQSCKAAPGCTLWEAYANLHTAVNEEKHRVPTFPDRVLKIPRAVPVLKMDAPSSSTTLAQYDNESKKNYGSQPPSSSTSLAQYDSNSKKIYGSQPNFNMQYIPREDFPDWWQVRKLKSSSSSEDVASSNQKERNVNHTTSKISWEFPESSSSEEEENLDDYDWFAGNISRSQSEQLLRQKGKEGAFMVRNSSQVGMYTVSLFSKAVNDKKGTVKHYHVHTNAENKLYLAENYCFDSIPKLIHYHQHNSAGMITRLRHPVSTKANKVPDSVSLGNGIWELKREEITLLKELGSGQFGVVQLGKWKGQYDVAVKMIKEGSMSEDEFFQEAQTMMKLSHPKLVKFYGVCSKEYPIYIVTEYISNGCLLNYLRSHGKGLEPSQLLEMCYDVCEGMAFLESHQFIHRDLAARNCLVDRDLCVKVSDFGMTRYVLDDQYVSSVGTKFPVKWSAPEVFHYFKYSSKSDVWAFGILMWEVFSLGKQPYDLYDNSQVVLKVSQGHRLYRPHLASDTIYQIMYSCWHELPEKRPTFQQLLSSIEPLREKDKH
UniProt P15056, whole entry, looked up: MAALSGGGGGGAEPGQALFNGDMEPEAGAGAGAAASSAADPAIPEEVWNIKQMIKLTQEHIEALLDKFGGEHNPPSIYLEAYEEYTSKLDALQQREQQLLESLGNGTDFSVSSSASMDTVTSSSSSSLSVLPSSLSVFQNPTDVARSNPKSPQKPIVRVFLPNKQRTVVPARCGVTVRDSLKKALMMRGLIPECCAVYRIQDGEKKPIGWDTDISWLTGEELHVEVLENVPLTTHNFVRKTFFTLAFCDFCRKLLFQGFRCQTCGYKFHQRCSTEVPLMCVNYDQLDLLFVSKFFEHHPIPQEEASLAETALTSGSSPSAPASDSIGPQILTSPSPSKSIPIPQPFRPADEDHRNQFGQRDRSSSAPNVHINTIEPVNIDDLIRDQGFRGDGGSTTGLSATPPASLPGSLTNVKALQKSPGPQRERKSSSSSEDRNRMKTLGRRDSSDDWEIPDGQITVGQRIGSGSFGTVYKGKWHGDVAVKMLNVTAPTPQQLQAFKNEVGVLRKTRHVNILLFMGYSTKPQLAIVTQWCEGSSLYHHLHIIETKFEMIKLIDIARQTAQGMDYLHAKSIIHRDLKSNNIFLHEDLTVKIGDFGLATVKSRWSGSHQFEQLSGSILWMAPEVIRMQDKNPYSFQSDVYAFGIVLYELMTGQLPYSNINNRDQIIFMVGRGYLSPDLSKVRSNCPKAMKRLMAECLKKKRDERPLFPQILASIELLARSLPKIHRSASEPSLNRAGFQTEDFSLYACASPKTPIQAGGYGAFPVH
UniProt Q06187: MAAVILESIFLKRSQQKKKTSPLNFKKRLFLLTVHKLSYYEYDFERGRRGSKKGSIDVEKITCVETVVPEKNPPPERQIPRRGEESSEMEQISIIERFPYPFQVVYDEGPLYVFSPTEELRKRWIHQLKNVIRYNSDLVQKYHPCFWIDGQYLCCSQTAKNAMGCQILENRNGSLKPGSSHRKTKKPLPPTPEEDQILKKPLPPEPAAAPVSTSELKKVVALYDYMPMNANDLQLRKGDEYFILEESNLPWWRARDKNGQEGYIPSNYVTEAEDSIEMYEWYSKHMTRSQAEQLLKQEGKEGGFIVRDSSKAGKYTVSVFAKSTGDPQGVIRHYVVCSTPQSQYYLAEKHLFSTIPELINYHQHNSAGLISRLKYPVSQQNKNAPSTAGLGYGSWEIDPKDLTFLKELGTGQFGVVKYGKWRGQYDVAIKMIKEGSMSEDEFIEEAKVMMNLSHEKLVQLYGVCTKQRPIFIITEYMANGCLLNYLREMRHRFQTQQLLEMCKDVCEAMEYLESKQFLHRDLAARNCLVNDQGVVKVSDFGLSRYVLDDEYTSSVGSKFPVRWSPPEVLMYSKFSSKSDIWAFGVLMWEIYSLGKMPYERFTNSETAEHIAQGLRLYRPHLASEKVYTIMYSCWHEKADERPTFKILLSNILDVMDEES

Experiments:
Experiment in all cases: number of time points (of 5) at which kinase-Nluc abundance scored as decreased, DMSO-normalised (count); higher = more persistent destabilization
Details in all cases: K562; 2-18 h
ALK = ALK (UniProt Q9UM73)
ARAF = ARAF (UniProt P10398)
AURKA = AURKA (UniProt O14965)
AURKB = AURKB (UniProt Q96GD4)
AURKC = AURKC (UniProt Q9UQB9)
BLK = BLK (UniProt P51451)
BMX = BMX (UniProt P51813)
BRAF = BRAF (UniProt P15056)
BRAF_V600E = tested on: BRAF_V600E
BTK = BTK (UniProt Q06187)

Row | Compound | number of time points (ALK) | number of time points (ARAF) | number of time points (AURKA) | number of time points (AURKB) | number of time points (AURKC) | number of time points (BLK) | number of time points (BMX) | number of time points (BRAF) | number of time points (BRAF_V600E) | number of time points (BTK)
1 | CCN1C(=O)N(c2c(F)c(OC)cc(OC)c2F)Cc2cnc3[nH]c(CN4CCOCC4)cc3c21 [Pemigatinib] (10 µM) | 0 | 0 | 0 | 0 | 0 | 0 | 0 | 0 | 0 | 0
2 | COc1cc2c(Nc3ccc(Br)cc3F)ncnc2cc1OCCn1ccnn1 (10 µM) | 0 | 0 | 0 | 0 | 0 | 0 | 0 | 0 | 0 | 0
3 | CCc1nc(-c2cccc(C)c2)c(-c2ccnc(NC(=O)c3ccccc3)c2)s1 (10 µM) | 0 | 0 | 0 | 0 | 0 | 0 | 0 | 0 | 0 | –
4 | CC(C)Oc1cc(Nc2nc(N[C@@H](C)c3ccc(F)cn3)ncc2Cl)n[nH]1 (10 µM) | 0 | 0 | 0 | 0 | 0 | 0 | 0 | 0 | 0 | 0
5 | O=c1oc2c(O)c(O)cc3c(=O)oc4c(O)c(O)cc1c4c23 [Ellagic acid] (10 µM) | 0 | 0 | 0 | 0 | 0 | 0 | 0 | 0 | 0 | 0
6 | Oc1cc(O)cc(/C=C/c2ccc(O)c(O)c2)c1 [Piceatannol] (10 µM) | 2 | 0 | 2 | 0 | 0 | 0 | 4 | 0 | 3 | –
7 | CC(C)(/C=C(\C#N)C(=O)N1CCC[C@@H](n2nc(-c3ccc(Oc4ccccc4)cc3F)c3c(N)ncnc32)C1)N1CCN(C2COC2)CC1 (2.5 µM) | 0 | 0 | 0 | 0 | 0 | 0 | 0 | 0 | 0 | –
8 | Cc1c(NC(=O)c2cc3c(s2)CCCC3)cccc1-c1cn(C)c(=O)c(Nc2ccc([C@@H]3C(=O)N(C)CCN3C)cc2)n1 (10 µM) | 0 | 0 | 0 | 0 | 0 | 0 | 0 | 0 | 0 | –
9 | CN1CCN(C2CCN(C(=O)Nc3cc(Oc4ccc(NC(=O)C5(C(=O)Nc6ccc(F)cc6)CC5)c(F)c4)ccn3)CC2)CC1 [Golvatinib] (2.5 µM) | 0 | 0 | 0 | 0 | 0 | 0 | 0 | 0 | 1 | 0
10 | C=CC(=O)N1CCC[C@@H](n2nc(-c3ccc(Oc4ccccc4)cc3)c(C(N)=O)c2N)C1 [Btk inhibitor 2] (10 µM) | 0 | 0 | 0 | 0 | 0 | 0 | 0 | 0 | 0 | –
11 | CCCn1cnc2c(NCc3ccccc3)nc(NC(CC)CO)nc21 (stereo unspecified) [Ca2+ channel agonist 1] (2.5 µM) | 0 | 0 | 0 | 0 | 0 | 0 | 0 | 0 | 0 | 0
12 | Cn1c(=O)n(-c2ccc(C(C)(C)C#N)cc2)c2c3cc(-c4cnc5ccccc5c4)ccc3ncc21 [Dactolisib (Tosylate)] (10 µM) | 2 | 0 | 4 | 4 | 3 | 3 | 3 | 5 | 4 | –
13 | CC(C)(C)S(=O)(=O)c1cc2c(Nc3ccc4scnc4c3)ncnc2cc1OCCO (2.5 µM) | 0 | 0 | 0 | 0 | 0 | 0 | 0 | 0 | 0 | 0
14 | COc1cc2c(Nc3ccc(NC(=O)c4ccccc4)cc3)ncnc2cc1OCCCN1CCOCC1 (10 µM) | 0 | 0 | 0 | 0 | 0 | 0 | 0 | 0 | 0 | 0
15 | O=c1c(-c2ccc(O)cc2)coc2cc(O)cc(O)c12 [Genistein] (10 µM) | 0 | 0 | 0 | 0 | 0 | 0 | 0 | 0 | 0 | 0
16 | Cc1ccc(F)c(NC(=O)Nc2ccc(-c3cccc4[nH]nc(N)c34)cc2)c1 [Linifanib] (2.5 µM) | 5 | 0 | 0 | 0 | 0 | 0 | 0 | 2 | 0 | 0
17 | CC[C@H](CO)Nc1nc(NCc2ccccc2)c2ncn(C(C)C)c2n1 [Seliciclib] (10 µM) | 0 | 0 | 0 | 0 | 0 | 0 | 0 | 0 | 0 | 0
18 | CNC(=O)c1cccc(-c2ccc3c(N4CCOC[C@@H]4C)nc(N4CCOC[C@@H]4C)nc3n2)c1 [Vistusertib] (2.5 µM) | 1 | 0 | 4 | 4 | 0 | 3 | 4 | 2 | 4 | 0
19 | N#Cc1ccc2[nH]c(O)c(-c3ccc(CN4CCOCC4)cn3)c2c1 (10 µM) | 0 | 0 | 0 | 0 | 0 | 0 | 0 | 0 | 0 | –

Taken from above:
In number of time points (AURKA), CC[C@H](CO)Nc1nc(NCc2ccccc2)c2ncn(C(C)C)c2n1 [Seliciclib] (10 µM) is listed with 0
In number of time points (AURKC), CC(C)(/C=C(\C#N)C(=O)N1CCC[C@@H](n2nc(-c3ccc(Oc4ccccc4)cc3F)c3c(N)ncnc32)C1)N1CCN(C2COC2)CC1 (2.5 µM) is listed with 0

The results go on.

Row | Compound | number of time points (ALK) | number of time points (ARAF) | number of time points (AURKA) | number of time points (AURKB) | number of time points (AURKC) | number of time points (BLK) | number of time points (BMX) | number of time points (BRAF) | number of time points (BRAF_V600E) | number of time points (BTK)
20 | Cn1c(=O)c(Oc2ccc(F)cc2F)cc2cnc(NC3CCOCC3)nc21 [R1487 (Hydrochloride)] (10 µM) | 0 | 0 | 0 | 0 | 0 | 0 | 0 | 0 | 0 | 0
21 | COc1nccc(-c2c(-c3ccc(F)cc3)ncn2C2CCC(O)CC2)n1 (stereo unspecified) (10 µM) | 0 | 0 | 0 | 0 | 0 | 0 | 0 | 0 | 0 | –
22 | CN1CCN(c2ccc(Nc3cc(-c4cccc(-n5ccc6cc(C7CC7)cc(F)c6c5=O)c4CO)cn(C)c3=O)nc2)CC1 (2.5 µM) | 0 | 0 | 0 | 0 | 0 | 0 | 0 | 0 | 0 | –
23 | O=C1c2ccccc2-c2n[nH]c3cccc1c23 (10 µM) | 0 | 0 | 0 | 0 | 0 | 0 | 0 | 0 | 0 | 0
24 | COc1ccc2c(NC(=O)Nc3cccc(C(F)(F)F)n3)ccnc2c1 (10 µM) | 0 | 0 | 0 | 0 | 0 | 0 | 0 | 0 | 0 | 0
25 | CN(c1ncccc1CNc1nc(Nc2ccc3c(c2)CC(=O)N3)ncc1C(F)(F)F)S(C)(=O)=O (2.5 µM) | 2 | 0 | 1 | 0 | 0 | 1 | 0 | 0 | 0 | 0
26 | Cc1cc(C)c(/C=C2\C(=O)Nc3ccccc32)[nH]1 [Semaxinib] (10 µM) | 0 | 0 | 0 | 4 | 0 | 1 | 0 | 0 | – | –
27 | COc1cc(N2CCC(N)CC2)ccc1Nc1ncc(Cl)c(-c2c[nH]c3ccccc23)n1 (2.5 µM) | 0 | 0 | 0 | 0 | 0 | 0 | 0 | 0 | 0 | 0
28 | CCN1CCN(c2ccc(Nc3cc(N(C)C(=O)Nc4c(Cl)c(OC)cc(OC)c4Cl)ncn3)cc2)CC1 [Infigratinib] (10 µM) | 0 | 0 | 0 | 0 | 0 | 0 | 0 | 0 | 0 | –
29 | COc1ccc(F)c(F)c1C(=O)c1cnc(NC2CCN(S(C)(=O)=O)CC2)nc1N (2.5 µM) | 3 | 0 | 3 | 2 | 0 | 2 | 2 | 0 | 3 | 1
30 | COc1cc(OC)cc(-c2cc3cnc(N)nc3nc2NC(=O)NC(C)(C)C)c1 (10 µM) | 0 | 0 | 0 | 0 | 0 | 0 | 0 | 0 | 0 | 0
31 | N#C/C(=C\c1ccc(O)c(O)c1)C(=O)NCc1ccccc1 (10 µM) | 0 | 0 | 0 | 0 | 0 | 0 | 0 | 0 | 0 | 0
32 | Cc1c(Cn2c(C)nc3c(C(=O)O)cc(N4CCOCC4)cc32)cccc1C(F)(F)F (10 µM) | 0 | 0 | 0 | 0 | 0 | 0 | 0 | 0 | 0 | 0
33 | N#CC(=Cc1ccc(O)c(O)c1)C(=O)NCc1ccccc1 (mixture of isomers) (10 µM) | 0 | 0 | 0 | 0 | 0 | 0 | 0 | 0 | 0 | 0
34 | CC1(C)CC=C(c2nc(C3CC(C)(C)OC(C)(C)C3)ccc2NC(=O)c2nc(C#N)c[nH]2)CC1 [Edicotinib] (2.5 µM) | 0 | 0 | 0 | 0 | 0 | 0 | 0 | 0 | 0 | 0
35 | CN(C)C[C@@H]1CCn2cc(c3ccccc32)C2=C(C(=O)NC2=O)c2cn(c3ccccc23)CCO1 [Ruboxistaurin (hydrochloride)] (10 µM) | 0 | 0 | 0 | 0 | 0 | 0 | 0 | 0 | 0 | –
36 | COc1cc2ncnc(Nc3cccc(O)c3)c2cc1OC (10 µM) | 3 | 0 | 1 | 2 | 0 | 1 | 2 | 1 | 3 | 0
37 | O=C1NCCc2[nH]c(-c3ccnc(-c4cnc5ccccc5c4)c3)cc21 (10 µM) | 0 | 0 | 0 | 0 | 0 | 0 | 0 | 0 | 0 | –
38 | O=C(/C=C/c1ccc(O)c(O)c1)c1ccc(O)cc1O [Butein] (10 µM) | 3 | 0 | 1 | 0 | 0 | 0 | 3 | 0 | 3 | 0
